From article PMC5805746

Experiments:
[1] = target: T1, Lsm8 (myc epitope-tagged) (S. pombe) (UniProt O74483); experiment: affinity purification with mass spectrometry; immunoprecipitation of individual myc epitope-tagged Sm and Lsm subunits from S. pombe strains; associated proteins identified by mass spectrometry; control IPs in parallel
T1 sequence: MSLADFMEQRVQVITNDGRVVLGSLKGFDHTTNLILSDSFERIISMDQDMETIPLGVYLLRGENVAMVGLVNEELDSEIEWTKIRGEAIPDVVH

[2] = target: T2, Lsm2 (myc epitope-tagged) (S. pombe) (UniProt O94408); experiment: as above
T2 sequence: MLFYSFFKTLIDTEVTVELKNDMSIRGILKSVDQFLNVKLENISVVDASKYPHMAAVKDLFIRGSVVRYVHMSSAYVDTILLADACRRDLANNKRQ

- binding [1]: binds
- binding [2]: binds
B1: Pof8 (protein, UniProt O13795 1-402)
chain: MFVPRQLNVRKIKAFTGKENNSIADGNNNKLKDEHYKHNEASKEPSHSISGGLMLNQQDRQLIEPLNPDFLSAVDSILEIYFHRERQKEKVHLAFLIQQDDFWKGIRPNPTQNNLKYALSYVTNALFHFDNSSHMVIRNENIVLPLDIPLYDRIIYVEPVPATLSNKSLLLAGKLRKYLKEFLPYVDAIGTPEGYAFVILYKKVDQSALSKLPVPPGWVLLTRKEWTNREEKYFENQLHLVKASSSDVSNSSNSFPENRYPKLTKVEKQMTKSVSKTSQTDKDEDNLDFTKNLLTRIKNLHPLTNKSTIHSLLSYVFSRQTQNIACEPMYIDYRKDETEAIIRWKTPLHAETCINAFRTQERKQNSHDDIRAHRKKGSSRPFLIAELITGEEEKNYWRMLKK

Results are given in words; binding and its absence hold for the method and conditions named. Binding seen in cells or lysates may run through a third protein. A yes stands for co-enrichment or nearness to the bait. Other partners may have been found. Sequences can lack the tags named with a protein.
